The values that follow come from publication PMC7819943, “Rice protein-binding microarrays: a tool to detect cis-acting elements near promoter regions in rice”.

Protein sequences, listed by entry. Tags and fused reporters are not part of them.
UniProt Q0JBA9, entry or part of it: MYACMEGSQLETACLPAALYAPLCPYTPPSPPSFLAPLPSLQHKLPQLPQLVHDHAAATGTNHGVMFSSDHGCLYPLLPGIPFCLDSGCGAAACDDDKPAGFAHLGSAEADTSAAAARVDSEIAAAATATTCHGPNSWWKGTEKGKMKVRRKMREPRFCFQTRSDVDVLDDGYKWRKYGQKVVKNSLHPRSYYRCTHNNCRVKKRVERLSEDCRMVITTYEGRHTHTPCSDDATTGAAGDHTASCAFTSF

The other results are listed elsewhere or left out.

In this assay the target is OsWRKY34 (Oryza sativa, UniProt Q0JBA9 1-250). Put plainly: protein-binding microarray (RPBM); PBS, 2% BSA, 51.3 ng/ul salmon testes DNA, 50 uM zinc acetate, 200 nM TF, 25 C, 1 h; high values mean tight binding. To be noted: protein: recombinant; tags: N-terminal polyhistidine and DsRed monomer fusion (pET32a); label: CyDye5-dUTP incorporated in the synthesized complementary strand; 3' TTTTT single-stranded linker to array surface; dsDNA, one strand shown. An outline of the steps: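 The binding signal for each feature is its fluorescence intensity in arbitrary units. An Axon 4000B scanner was used to read a custom Agilent array that had been made double-stranded with Cy5-dUTP primer extension, blocked with 2% BSA, incubated at 25 °C for 1 h with 200 nM protein in PBS, 2% BSA, salmon testes DNA and 50 µM zinc acetate, and washed. The protein was an N-terminal polyhistidine–DsRed transcription factor fusion from E. coli BL21-CodonPlus, purified on Ni–NTA.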
Regarding “TTCGCTCTATCTTCCTTGTCGTGGCCACTCTCGTTTTCATCGGAGTCACCTAGTGCAG”, the binding signal is 9430 fluorescence intensity (a.u.).
For the sequence “ATGCAAGCTAGTGTGATCCAGGGGTTCGTTTTGTTTCTTGCGGAGTCACCTAGTGCAG”, the binding signal is 10100 fluorescence intensity (a.u.).
The result for “TTCATGTATAGCTCATCCTACTAATCATTTCACACTAGTTCGGAGTCACCTAGTGCAG” reads 8370 fluorescence intensity (a.u.); that for “AACCTCACTCTTGTATAGAACGACAAGTATTATCGGCCCACGGAGTCACCTAGTGCAG”, 8460 fluorescence intensity (a.u.).
As for “TGTCGTGGTGTTTTTACTTCTTATTCAGTTTTTTTATACTCGGAGTCACCTAGTGCAG”, the binding signal is 11600 fluorescence intensity (a.u.).
The result for “TATAAGTCATTTGACTTTTTTTCTAGCTAAACTTCTTTAACGGAGTCACCTAGTGCAG” reads 10400 fluorescence intensity (a.u.); that for “CTATTAATGGGGATTGGGGATGGATTGTGTTGAGCTGGAACGGAGTCACCTAGTGCAG”, 10500 fluorescence intensity (a.u.); that for “TTGGGGTTTTTAGAATATCTATACATTTGTTGATAAATTTCGGAGTCACCTAGTGCAG”, 8640 fluorescence intensity (a.u.).
For “TCACAATTCTTCACTTACCTGAAACGCGACGACCATATCACGGAGTCACCTAGTGCAG”, the binding signal is 8500 fluorescence intensity (a.u.).
As for “CGAGGGAGGGGAGGAGGAGGAGAGTGGCGGCGGCGGCGGCCGGAGTCACCTAGTGCAG”, the binding signal is 8750 fluorescence intensity (a.u.).
For “AAAAGGCGCGGTGACCACGGCAGACTTGCGGTGGATGGGGCGGAGTCACCTAGTGCAG”, the binding signal was 8590 fluorescence intensity (a.u.).
On to “ACACTCTAAAACTACTAGATTTTCATCATTTTGTTACAGCCGGAGTCACCTAGTGCAG”, for which the binding signal is 8680 fluorescence intensity (a.u.).
“GATGACCTTGCAAGTATAATCTCGTGTCATCAGGCAAACGCGGAGTCACCTAGTGCAG”: the binding signal is 8850 fluorescence intensity (a.u.).
With “GCTATATTCCAGTTTGTGTAATTGTGTTGCCATCTATTAACGGAGTCACCTAGTGCAG” the figure was 9720 fluorescence intensity (a.u.); with “TTGCACTACATTTTTTTTTCCTTATGATTAGCCTACTACACGGAGTCACCTAGTGCAG”, 10600 fluorescence intensity (a.u.).
The result for “TTCTCGCCGTCTTCTCTTCTCCACCACCTCGCTGCCTTCTCGGAGTCACCTAGTGCAG” reads 8690 fluorescence intensity (a.u.).
With “GGCTAGCCTCCGCAGACACACGCCATCCGAAATTCCCGTACGGAGTCACCTAGTGCAG” the figure was 8950 fluorescence intensity (a.u.); with “GCGGCACATCCATCTTTTTCCACGACCGCCTCCGCCGCGCCGGAGTCACCTAGTGCAG”, 8680 fluorescence intensity (a.u.); with “CTACCTCACCCATGGCTGCTTCCTGGCCACAGCAACCCACCGGAGTCACCTAGTGCAG”, 8980 fluorescence intensity (a.u.).
As for “GACACCATATCCGCATCCGCATCCGCATCCATCTCATACTCGGAGTCACCTAGTGCAG”, the binding signal was 9580 fluorescence intensity (a.u.).
For “TCCCGCATGTGTTGTGTGATGTGTCTCGTCTCCGCCACCACGGAGTCACCTAGTGCAG”, the binding signal is 11400 fluorescence intensity (a.u.).
As for “CTCTTGCTCTGCTCTGTTTTTGGCCCATCCTCACCCACAACGGAGTCACCTAGTGCAG”, the binding signal is 10600 fluorescence intensity (a.u.).
With “ATTGATTTATGACTGTATATTTTTTATCATGTTGTGCTTTCGGAGTCACCTAGTGCAG”, the binding signal was 9310 fluorescence intensity (a.u.).
Consider “TCTCGTGTTTCTCGCGCCCCAATTAATCCACGGGCCACAACGGAGTCACCTAGTGCAG”, for which the binding signal was 9070 fluorescence intensity (a.u.).
On to “TAGTGATAAATGTTTTTGTTTCTTTGTGCATATCGAATTTCGGAGTCACCTAGTGCAG”, for which the binding signal is 8960 fluorescence intensity (a.u.).
Take “TCCATCCTCGACACCACCGTCTCCGCTTCCCTTTCCATTCCGGAGTCACCTAGTGCAG”: the binding signal is 11600 fluorescence intensity (a.u.).
Take “TTGATGAACTTATTTCCTTTTCGTAATCCGGGCCCACCAACGGAGTCACCTAGTGCAG”: the binding signal was 9680 fluorescence intensity (a.u.).
In the case of “TAGTACCTTCCCTTTTGGTTTATTGAGTCGATTGGGTCGACGGAGTCACCTAGTGCAG”, the binding signal was 8040 fluorescence intensity (a.u.).
For the sequence “ATTTTCTATTATTTATTTTTTTAGGCCTAATCCTTCTTCCCGGAGTCACCTAGTGCAG”, the binding signal is 8480 fluorescence intensity (a.u.).
On to “GGCTACGACTTCCCTTCATCTCGCCGCTATAAGTATCCCGCGGAGTCACCTAGTGCAG”, for which the binding signal is 8670 fluorescence intensity (a.u.).
On to “GCACATGCTGAAAAACACACACACACACACATTATTTTTTCGGAGTCACCTAGTGCAG”, for which the binding signal was 8470 fluorescence intensity (a.u.).
With “TTTCTCCTCACCGTCCGAACGGGCTCACCGGCCCCTCCCTCGGAGTCACCTAGTGCAG”, the binding signal was 9320 fluorescence intensity (a.u.).
As for “CATTGTGTGGAAGTACTATCTTTTGCATGCAGGTCTCCTACGGAGTCACCTAGTGCAG”, the binding signal was 8190 fluorescence intensity (a.u.).
As for “CCTATCCATGATCGCGTCCCGCCCGCGCGCCGCGCGCGCGCGGAGTCACCTAGTGCAG”, the binding signal is 9940 fluorescence intensity (a.u.).
With “AGAGCGGGTGGGAGGCGAAGTAGACAGGGGCGGGGCGCATCGGAGTCACCTAGTGCAG”, the binding signal is 15700 fluorescence intensity (a.u.).
With “CAGATCACAACCCTGCACTGGCTAGCTATATATACACATACGGAGTCACCTAGTGCAG” the figure was 11800 fluorescence intensity (a.u.); with “TGACTCCTGCTGCGCTCTCAGCGTCTGTATTCTCCTCAGTCGGAGTCACCTAGTGCAG”, 9280 fluorescence intensity (a.u.); with “CTTATCTTCTGAAAATTATGTTGTGTTCTTCTCCTCTTACCGGAGTCACCTAGTGCAG”, 8100 fluorescence intensity (a.u.).
As to “CCTAATCCGCGTTCTCCCTTCTTTCTACTCGCCTCCGCCTCGGAGTCACCTAGTGCAG”, the binding signal was 8940 fluorescence intensity (a.u.).
The result for “GCCTCACATGCTTTTTATTTTTTTTTTCTGACTAGAATTTCGGAGTCACCTAGTGCAG” reads 10500 fluorescence intensity (a.u.); that for “GCTACTATCACTTCATGCTCATATTATCTCGACGTTTTACCGGAGTCACCTAGTGCAG”, 10800 fluorescence intensity (a.u.); that for “TTCCTCCATCCATTTTGTCAACTCCTCTCCGCTTTTCATCCGGAGTCACCTAGTGCAG”, 9640 fluorescence intensity (a.u.).
